Consider one substance from article PMC10397244, “BIK1 protein homeostasis is maintained by the interplay of different ubiquitin ligases in immune signaling” (Nature Communications, 2023).

Sequences of proteins named here, by UniProt entry; tags and fusion partners are left off. A change or cut given only in a name is not applied to a line headed by its entry.
UniProt F4JJ02: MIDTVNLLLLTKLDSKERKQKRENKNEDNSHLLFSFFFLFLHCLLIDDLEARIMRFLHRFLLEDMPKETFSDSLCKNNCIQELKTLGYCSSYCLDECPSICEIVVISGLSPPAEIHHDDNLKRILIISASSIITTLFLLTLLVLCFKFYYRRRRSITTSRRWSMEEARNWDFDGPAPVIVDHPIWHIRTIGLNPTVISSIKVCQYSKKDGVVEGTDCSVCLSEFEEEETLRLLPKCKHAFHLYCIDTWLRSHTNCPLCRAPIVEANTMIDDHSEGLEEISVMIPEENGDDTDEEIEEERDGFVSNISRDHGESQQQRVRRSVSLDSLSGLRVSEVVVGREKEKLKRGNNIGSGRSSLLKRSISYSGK

This assay deals with T1, BIK1-CLuc (Arabidopsis thaliana) (UniProt O48814).
T1 sequence: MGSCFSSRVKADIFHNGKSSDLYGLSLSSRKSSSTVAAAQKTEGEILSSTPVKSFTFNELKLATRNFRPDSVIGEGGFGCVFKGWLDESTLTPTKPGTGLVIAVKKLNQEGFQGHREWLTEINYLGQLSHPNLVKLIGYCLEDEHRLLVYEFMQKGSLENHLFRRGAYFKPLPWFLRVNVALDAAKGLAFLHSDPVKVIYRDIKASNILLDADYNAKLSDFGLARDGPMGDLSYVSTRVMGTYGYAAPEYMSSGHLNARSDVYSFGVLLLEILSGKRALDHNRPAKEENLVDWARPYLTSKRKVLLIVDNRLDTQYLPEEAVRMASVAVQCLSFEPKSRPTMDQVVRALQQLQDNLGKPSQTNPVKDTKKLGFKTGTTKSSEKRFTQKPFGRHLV
As to the kind of experiment: split reporter; split-luciferase complementation; CLuc and NLuc fusions co-infiltrated into N. benthamiana leaves, luminescence two days later; with or without 5 uM flg22 for 30 min.

These are yes or no findings as the source states them, for the method shown. In cells and extracts the contact can be indirect. A result given as binding can be weak or reduced; the word gives no strength. Where a sequence is shown, tags or fusion partners need not be part of it.

For ATL83-NLuc (from UniProt F4JJ02), the binding result was “binds”.
